# Data reported in patent publication US7985832B2 (Kansas State University Research Foundation, priority 2005, dated 2011).
# Experiment: peptide made by a vendor
# Conditions: whole synthesis, RP-HPLC
substance,measurement,value
PEPTIDE1{R.L.K.E.L.I.T.T.G.G.Q.K.I.G.E.K.I.R.R.I.G.Q.R.I.K.D.F.F.K.N.L.Q.P.R.E.E.K.S}$$$$V2.0,final HPLC purity,>99%

# Some peptides are written in HELM: one residue between dots, names in brackets for other building blocks, links after the first $.
